Source: paper PMC7768757
Results are given in words; binding and its absence hold for the method and conditions named. Binding seen in cells or lysates may run through a third protein. These calls come from enrichment with a bait or labelling near it, and not all partners need be listed.

Tests used:
[1] = biological target: Tic20-YFP-FLAG3x (Chlamydomonas reinhardtii); test: affinity purification with mass spectrometry; affinity-purified Tic20-YFP-FLAG3x fraction (digitonin) separated by 2D BN/SDS-PAGE, silver staining, mass spectrometry of discrete spots of the large complex
[2] = biological target: Tic214 with three copies of the HA tag (Chlamydomonas reinhardtii); test: affinity purification with mass spectrometry; reciprocal coimmunoprecipitation with triple-HA-tagged Tic214 as bait from Chlamydomonas, then mass spectrometry; gel regions with the antibody chains were excluded
[3] = biological target: Tic20-YFP-FLAG3x (Chlamydomonas reinhardtii); test: affinity purification with mass spectrometry; immunopurification of Tic20-YFP-FLAG3x from Chlamydomonas under native conditions, then mass-spectrometric analysis; as in ref. 47

Measured: binding

B1: Chlamydomonas Toc34 (protein, UniProt A8HYJ1 1-397)
chain: MAQPPRPAEEYDDDVQEDEDELKEGELDDDESHEAASEGGEAAAGDEEAEDDEQDEEDGDEDSQPWAGLNRLPERDDMLDILNELRAEGRKQLTVLLLGKSSVGKSSLINSLLGEAVVRVQAFKLQADTDITTTVVRQVAVGNSEVDGFRLKLIDTCGLEDPEAGDTVNLGALSKIAEDVRGVGIDVVLYCDRLDLYRVDPLDKAIIDAISSTFGRGIWRRTVVALTHANLVQTPPGTDYDSFVNGRVRLIRGAVRGPLFFRPSLPVALVENSETCPVSSESGFRVLPDGEPWLVALVSQLVDMAAARRRPYKYHPRLSSKPSHRFRWLLPVAIAAEVLFYRRFLHPRLDDNQRRVEREEERVWALRGQQRRALGLHRPHRPDKDAAWRLEQMYDDD
binds: all assays above
